Source: paper doi:10.1101/2021.09.14.460382
These are yes or no findings as the source states them, for the method shown. In cells and extracts the contact can be indirect. Some binding calls cover weakened binding; strength is not graded here.

Molecular target: T1, Mdm2 (zebrafish (endogenous in zebrafish embryos)) (UniProt O42354)
T1 sequence: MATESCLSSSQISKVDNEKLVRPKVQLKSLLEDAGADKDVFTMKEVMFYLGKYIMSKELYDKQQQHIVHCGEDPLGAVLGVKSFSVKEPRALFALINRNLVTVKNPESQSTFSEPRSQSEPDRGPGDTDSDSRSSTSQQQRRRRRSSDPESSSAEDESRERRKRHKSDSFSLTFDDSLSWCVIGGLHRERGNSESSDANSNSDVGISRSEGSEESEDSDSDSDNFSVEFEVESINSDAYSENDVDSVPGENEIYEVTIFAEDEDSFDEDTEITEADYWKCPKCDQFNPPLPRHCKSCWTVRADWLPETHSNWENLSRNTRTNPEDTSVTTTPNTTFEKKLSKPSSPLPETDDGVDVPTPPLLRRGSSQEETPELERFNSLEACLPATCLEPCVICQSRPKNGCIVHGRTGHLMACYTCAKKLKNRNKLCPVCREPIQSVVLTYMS
Assay: co-IP

B1: p53 protein (protein, UniProt P79734 1-373)
chain: MAQNDSQEFAELWEKNLIIQPPGGGSCWDIINDEEYLPGSFDPNFFENVLEEQPQPSTLPPTSTVPETSDYPGDHGFRLRFPQSGTAKSVTCTYSPDLNKLFCQLAKTCPVQMVVDVAPPQGSVVRATAIYKKSEHVAEVVRRCPHHERTPDGDNLAPAGHLIRVEGNQRANYREDNITLRHSVFVPYEAPQLGAEWTTVLLNYMCNSSCMGGMNRRPILTIITLETQEGQLLGRRSFEVRVCACPGRDRKTEESNFKKDQETKTMAKTTTGTKRSLVKESSSATLRPEGSKKAKGSSSDEEIFTLQVRGRERYEILKKLNDSLELSDVVPASDAEKYRQKFMTKNKKENRESSEPKQGKKLMVKDEGRSDSD
- binding: binds
